# Values from PubChem BioAssay AID1224828 (NIAID, 2016)
# Assay: 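Regulators linking TLR4 signalling to p65 nuclear translocation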 (primary screen)
# Cell system: mouse RAW264.7 G9 macrophage reporter cells (GFP-p65, Tnf promoter-mCherry)
# Knock-down reagent: siRNA pool against mouse genes, 100 nM
# Time to read-out: 2 days siRNA transfection, then 40 min LPS before fixation
# Challenge: LPS (Salmonella minnesota R595) at 10 ng/ml
# Detection: 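Imaged p65 nuclear translocation ratio, normalised to the plate median, converted to robust z-scores and averaged across two replicates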
# Direction: p65 translocation robust z-score: higher = more nuclear NF-kappaB p65 after LPS than the plate median; nuclear/cytoplasmic p65 ratio: higher = more nuclear NF-kappaB p65
# Call rule: 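Active if robust z is above 3.3 (negative regulators) or below -1.56, the Tlr4 control median (positive regulators); activity score 50 or more; control wells not called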
# Calls: active = hit (p65 shift raised or lowered); inactive = no clear change
# This is an unselected part of about 17,000 deposited reagents. Over the whole deposit, 762 (4.5%) are marked active. 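Active calls include both raised and lowered p65 entry, mostly lowered; wells with fewer than 50 cells lack a z-score.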 Raw values vary from plate to plate and are shown uncorrected. Some reagents were tested in more than one well and are listed for each. No sequences are given here.
Target gene,p65 translocation robust z-score,"nuclear/cytoplasmic p65 ratio, rep 1","nuclear/cytoplasmic p65 ratio, rep 2",low cell count flag,call
Rb1cc1,0.41,1.54,1.61,enough cells to score,inactive
Sorcs1,-0.11,1.45,1.63,enough cells to score,inactive
Or9a2,,1.6,1.07,fewer than 50 cells per well; well left out of scoring,inactive
Cdk2ap1,0.56,1.6,1.39,enough cells to score,inactive
Dkk2,-0.4,1.37,1.35,enough cells to score,inactive
Cdc26,-0.56,1.48,1.72,enough cells to score,inactive
Mtmr10,-0.77,1.35,1.84,enough cells to score,inactive
Dync1i1,-0.39,1.39,1.36,enough cells to score,inactive
Igfals,1.11,1.58,1.52,enough cells to score,inactive
Optn,4.16,1.96,2,enough cells to score,active
Arl6ip6,-0.12,1.58,1.5,enough cells to score,inactive
4930544M13Rik,,1.11,1.06,fewer than 50 cells per well; well left out of scoring,inactive
Ubiad1,-1.8,1.36,1.19,enough cells to score,active
Entpd5,0.49,1.57,1.4,enough cells to score,inactive
Krt20,-0.19,1.64,1.53,enough cells to score,inactive
Defa21,,1.29,1.27,fewer than 50 cells per well; well left out of scoring,inactive
Atrx,-0.05,1.66,1.55,enough cells to score,inactive
Mtfmt,,1.57,1.47,fewer than 50 cells per well; well left out of scoring,inactive
Pcdha9,-0.87,1.3,1.17,enough cells to score,inactive
Ndufs2,0.67,1.53,1.43,enough cells to score,inactive
Hif1an,-0.6,1.39,1.34,enough cells to score,inactive
Tigd5,-0.36,1.27,1.55,enough cells to score,inactive
Top1mt,0.35,1.65,1.68,enough cells to score,inactive
Scin,-0.8,1.36,1.09,enough cells to score,inactive
Nrk,-0.48,1.68,1.26,enough cells to score,inactive
Ccdc125,,1.17,1.01,fewer than 50 cells per well; well left out of scoring,inactive
Mrps17,-1.18,1.8,1.24,enough cells to score,inactive
Slc29a2,,1.4,1.06,fewer than 50 cells per well; well left out of scoring,inactive
Sgca,-1.1,1.33,1.45,enough cells to score,inactive
Iscu,,1.45,1.43,fewer than 50 cells per well; well left out of scoring,inactive
Apoc1,0.05,1.66,1.6,enough cells to score,inactive
L1cam,-0.68,1.37,1.29,enough cells to score,inactive
Fam25a,,1.4,1.41,fewer than 50 cells per well; well left out of scoring,inactive
Dnm1l,0.45,1.69,1.31,enough cells to score,inactive
Zfp758,0.53,1.8,1.62,enough cells to score,inactive
Zfp652,-0.07,1.36,1.6,enough cells to score,inactive
Actr8,0.1,1.56,1.76,enough cells to score,inactive

The list goes on; the last 7 above are carried over.
Target gene,p65 translocation robust z-score,"nuclear/cytoplasmic p65 ratio, rep 1","nuclear/cytoplasmic p65 ratio, rep 2",low cell count flag,call
Apoc1,0.05,1.66,1.6,enough cells to score,inactive
L1cam,-0.68,1.37,1.29,enough cells to score,inactive
Fam25a,,1.4,1.41,fewer than 50 cells per well; well left out of scoring,inactive
Dnm1l,0.45,1.69,1.31,enough cells to score,inactive
Zfp758,0.53,1.8,1.62,enough cells to score,inactive
Zfp652,-0.07,1.36,1.6,enough cells to score,inactive
Actr8,0.1,1.56,1.76,enough cells to score,inactive
Hp,-0.07,1.37,1.42,enough cells to score,inactive
Scn8a,0.21,1.51,1.65,enough cells to score,inactive
P4htm,-0.1,1.59,1.61,enough cells to score,inactive
Eya4,-0.43,1.49,1.24,enough cells to score,inactive
Npb,0.84,1.94,1.57,enough cells to score,inactive
Six3,0.18,1.72,1.44,enough cells to score,inactive
Cbfb,-0.25,1.39,1.38,enough cells to score,inactive
Slc8b1,0.06,1.38,1.29,enough cells to score,inactive
Bcl6,-0.56,1.5,1.56,enough cells to score,inactive
Cyb561a3,,1.57,1.15,fewer than 50 cells per well; well left out of scoring,inactive
Brd10,1.72,1.68,1.76,enough cells to score,inactive
Mrpl50,2.42,2.02,2.09,enough cells to score,inactive
Spata32,,1.56,1.52,fewer than 50 cells per well; well left out of scoring,inactive
St6gal2,1.58,1.62,1.42,enough cells to score,inactive
Tdrd7,0.29,1.57,1.55,enough cells to score,inactive
Vamp4,-0.3,1.37,1.18,enough cells to score,inactive
Trpd52l3,-0.25,1.51,1.35,enough cells to score,inactive
Trpd52l3,,1.26,1.22,fewer than 50 cells per well; well left out of scoring,inactive
Gas7,-1.18,1.22,1.28,enough cells to score,inactive
Psma4,,2.11,1.17,fewer than 50 cells per well; well left out of scoring,inactive
Higd1b,,1.16,1.24,fewer than 50 cells per well; well left out of scoring,inactive
Wwp1,0.88,1.75,1.74,enough cells to score,inactive
